# Test results taken from publication PMC12040169 (PLOS Biology, 2025).
# Some of the results follow.
# System: T1, CTL2-GFP (C. trachomatis L2/434/Bu, GFP-expressing)
# T1 construct: L2/434/Bu, GFP-expressing
# Set-up: species or system HeLa; Intracellular C. trachomatis growth in HeLa cells, bulk GFP fluorescence relative to DMSO
# Settings: bulk GFP, single well; 28.5 h, 10 µM; inhibitor
row,SMILES,% of control remaining [%]
1,COc1ccc(/C=C/C(=O)O)cc1S(=O)(=O)N1CCCCCC1 [CBK263565],100
2,Cc1noc(C)c1S(=O)(=O)Nc1ccnn1C [CBK062073],95.6348
3,Cc1n[nH]c(C)c1CNC(=O)c1cc2ccc(F)cc2[nH]1 [CBK283147],110.399
4,Cc1cc2cn([C@H]3C[C@@H](O)[C@@H](CO)O3)c(=O)nc2[nH]1 [CBK201302],132.658
5,COc1ccnc(N2CCc3c(ncn3C3CC3)C2)n1 [CBK304816],135.434
6,O=C(Cn1ncc2ccccc2c1=O)N1CCC(c2ccccc2)C1 (stereo not drawn) [CBK281843],120.86
7,COc1ccc(N2CC(C(=O)Nc3ccc(C(=O)O)cc3)CC2=O)cc1 (stereo not drawn) [CBK268782],156.909
8,COc1ccc(C[C@@H]2NC(=O)[C@H]3CN(C(=O)Nc4cccc(OC)c4)CCN3C2=O)cc1 [CBK289617],114.381
9,CC(C)C(=O)Nc1cc2cccnc2nc1-c1ccsc1 [CBK073649],107.924
10,CC(C)NC(=O)Nc1ccc(C(=O)N(CCC#N)C(C)C2CC2)cc1 (stereo not drawn) [CBK305312],110.114
11,O=C(Nc1nc2ccccc2[nH]1)c1ccc(N2CCCS2(=O)=O)cc1 [CBK304582],97.5582
12,O=C(O)Cc1sc(-c2ccc3c(c2)OCO3)nc1-c1ccccc1 [CBK200114],131.359
13,O=C(CSc1nnc(-c2ccco2)c(-c2ccco2)n1)Nc1ccccc1[N+](=O)[O-] [CBK265762],148.548
14,COc1ccc2nc(NCc3ccccc3)sc2c1 [CBK287485],152.364
15,CCOC(=O)Cn1c(C)nc2ccccc21 [CBK115311],91.7413
16,c1ccc(-c2nc3cc4ccccc4cc3[nH]2)nc1 [CBK000130],22.5821
17,Cc1ccc(CNCc2cc3c(C)nn(-c4ccccc4)c3[nH]c2=O)o1 [CBK282896],124.798
18,CC1(C)C(=O)Nc2ccccc2N1C(=O)COc1ncnc2sc3c(c12)CCC3 [CBK297530],101.233
19,O=C1NCCN1CCOc1nccnc1-c1cnn(Cc2ccccc2)c1 [CBK107094],188.38
20,Cc1nc2cccnc2n1C1CCN(C(=O)C(C)(C)C)CC1 [CBK282426],116.711
21,Cc1ccccc1CNC(=O)CCc1c(C)nc2nc(N)nn2c1C [CBK304987],140.698
22,Fc1cccc(-c2nc3c(s2)CN(C2CCOCC2)CC3)c1 [CBK281647],132.933
23,O=C(CNS(=O)(=O)c1ccc(Br)cc1)NCc1cccnc1 [CBK266295],182.89
24,CCn1nc(C)c(NC(=O)CN(C)Cc2ccccc2C(F)(F)F)c1C [CBK306771],102.571
25,CC(=O)OCc1c(C)cc(C)c(CN(C)C(C)c2ccon2)c1C (stereo not drawn) [CBK306780],191.479
26,O=C(CCCC1CC1)N1CCn2c(nnc2-c2cncc(Br)c2)C1 [CBK304767],119.829

row,SMILES,% of control remaining [%]
1,CCc1noc(C)c1C(=O)Nc1cc(S(=O)(=O)N2CCCCC2)ccc1N(C)C [CBK295328],143.589
2,O=C(CC(CN1CCN(Cc2ccccn2)CC1)C(=O)O)Nc1ccc(F)cc1 (stereo not drawn) [CBK286800],132.307
3,O=c1[nH]ccn2nc(-c3ccc4c(c3)OCO4)cc12 [CBK288048],125.29
4,NC(=O)CC1C=CS(=O)(=O)C1 (stereo not drawn) [CBK019653],139.423
5,Cc1ccc(-c2cc(C(=O)N3CCN(C4CCS(=O)(=O)C4)CC3)c3ccccc3n2)cc1 (stereo not drawn) [CBK297153],93.7576
6,COc1nnc(-c2ccc(N3CCOCC3)c(NC(=O)COc3ccc(C)cc3)c2)c2ccccc12 [CBK266103],175.356
7,COc1ccc(S(=O)(=O)N2CCN(C(=O)c3ccco3)CC2)c2ccccc12 [CBK269839],134.42
8,O=C(NCCNC(=O)c1ccccn1)c1cccc(F)c1 [CBK269613],134.813
9,COc1ccc(C(=O)C(C)OC(=O)c2ccc3ccccc3n2)cc1 (stereo not drawn) [CBK111937],99.5326
10,CNC(=O)C1(Cc2ccccc2-c2cccs2)CCN(C(=O)c2cccc(OC)c2)CC1 [CBK285907],106.126
11,CCSc1nc(N)c(NC(=O)c2ccco2)c(=O)[nH]1 [CBK287613],127.227
12,Cc1ccc(N(CC(O)CNC23CC4CC(CC(C4)C2)C3)S(=O)(=O)c2ccccc2)cc1 (stereo not drawn) [CBK264741],87.1292
13,Cc1ccccc1C(=O)N1CCN(Cc2cc(=O)n3ccsc3n2)CC1 [CBK304595],135.65
14,Cc1c(Cl)cccc1NC(=S)/N=C(\N)Nc1nc(C)c2ccccc2n1 [CBK268866],95.8367
15,CC(=O)N1CC2(CCN(C(=O)c3ccco3)CC2)Nc2ccccc21 [CBK284447],109.079
16,CCOC(=O)N1CCN(C(=O)C2CC=CCC2C(=O)O)CC1 (stereo not drawn) [CBK266142],140.867
17,COc1cc(CNC2CCCc3c2cnn3C)c(O)c(C(C)(C)C)c1 (stereo not drawn) [CBK304716],102.935
18,CCCC/C=C\c1nccnc1OCCn1cccc1 [CBK106891],153.801
19,COc1ccc(OCCCOc2ccccc2C(C)C)cc1 [CBK026366],122.062
20,CC(C)(O)C(=O)NCc1nc2c(s1)CC(c1ccccc1)CC2 (stereo not drawn) [CBK304165],126.366
21,O=C(CCCc1c[nH]c2ccccc12)N1CCn2c(nnc2C2CC2)C1 [CBK283689],142.863
22,COc1ccc(-c2noc([C@@H]3C[C@@H](O)CN3Cc3cccc(C#N)c3)n2)cc1 [CBK288843],129.619
23,COc1ccc([C@@H]2CN(C(=O)c3ccccc3)[C@H]3CCN(Cc4ccc(F)cc4)C[C@@H]23)cc1 [CBK285581],50.4847
24,Cc1cc(COc2cc(N3CCCNCC3)ncn2)no1 [CBK085462],137.917
25,CC(C)CNc1nccnc1-c1ccc2c(c1)OCO2 [CBK088730],97.9763
26,Cc1ccc(NC(=O)N(Cc2ccc3ccccc3c2)CC2CCNCC2)cc1[N+](=O)[O-] [CBK049771],89.3185

# An excerpt from above in order of SMILES length, rising.
row,SMILES,% of control remaining [%]
4,NC(=O)CC1C=CS(=O)(=O)C1 (stereo not drawn) [CBK019653],139.423
19,COc1ccc(OCCCOc2ccccc2C(C)C)cc1 [CBK026366],122.062
3,O=c1[nH]ccn2nc(-c3ccc4c(c3)OCO4)cc12 [CBK288048],125.29
16,CCOC(=O)N1CCN(C(=O)C2CC=CCC2C(=O)O)CC1 (stereo not drawn) [CBK266142],140.867
15,CC(=O)N1CC2(CCN(C(=O)c3ccco3)CC2)Nc2ccccc21 [CBK284447],109.079
2,O=C(CC(CN1CCN(Cc2ccccn2)CC1)C(=O)O)Nc1ccc(F)cc1 (stereo not drawn) [CBK286800],132.307

# Later entries

row,SMILES,% of control remaining [%]
1,CC(=O)Oc1ccc2c(=O)c(C3NC(C(=O)O)Cc4c3[nH]c3ccccc43)coc2c1 (stereo not drawn) [CBK293948],90.9612
2,CC(C)(C)Nc1c(C2CCN(C(=O)C3CC3)CC2)nc2ccccn12 [CBK284787],91.6216
3,O=C(Cc1cccnc1)N1Cc2ccccc2C1 [CBK200320],179.357
4,CC(=O)Nc1ccc(-n2cc(CN3CCC(Sc4ccccn4)CC3)nn2)cc1 [CBK149476],85.4289
5,c1ccc(C(Oc2nccnc2-c2ccncc2)c2ccccc2)cc1 [CBK106728],105.795
6,COc1ccc(C(C)C)cc1-c1cnc2[nH]c(=O)n(CCc3cccnc3)c2n1 [CBK064343],145.492
7,CCC(=O)N1C2CCC1c1cnc3cc(-c4ccco4)nn3c1C2 (stereo not drawn) [CBK284384],75.5214
8,CC(C)(C)c1ccc(S(=O)(=O)N2CCCC[C@H]2CCOC(=O)c2ncccc2C(=O)O)cc1 [CBK200066],121.334
9,COc1ccc(C(=O)/C=C/c2ccc(N3N=C(c4ccccc4)CC3c3ccccc3)cc2)cc1 (stereo not drawn) [CBK262274],98.9806
10,COC(=O)c1c(NC(=O)C(C)Oc2cc(C)c(Cl)c(C)c2)sc(C(C)=O)c1C (stereo not drawn) [CBK265678],125.901
11,O=C(Nc1ccc(NC(=O)Nc2cccc(Cl)c2)cc1)Nc1cccc(Cl)c1 [CBK267623],111.861
12,CCN(CC)C(=O)N1CCN(CCCC(=O)c2ccc(F)cc2)CC1 [CBK025042C],110.198
13,O=C1NC2(CCCN(C(=O)c3ccco3)C2)Oc2ccccc21 (stereo not drawn) [CBK284800],111.362
14,c1cncc(CNc2nccnc2-c2ccoc2)c1 [CBK037635],114.148
15,CC1(C)Cc2nc3sc4c(=O)n(CC(=O)NCCc5ccccc5)cnc4c3cc2CS1 [CBK269180],118.586
16,CCOc1ccccc1CNc1ccc(C2c3ccsc3CCN2C(=O)COC)cc1 (stereo not drawn) [CBK286461],123.509
17,Cc1cc(C2CCCCCN2S(=O)(=O)c2ccc(F)cc2)on1 (stereo not drawn) [CBK284668],83.6917
18,COCc1cn([C@H]2CO[C@H]3[C@@H]2OC[C@H]3OC)nn1 [CBK289490],155.414
19,Cc1cnn(C2CCCN(C(=O)CCCc3cccs3)C2)c1 (stereo not drawn) [CBK304168],119.337
20,CCOC(=O)c1cc(Cl)cnc1C1CCN(C(=O)C2CC2)CC1 [CBK284810],168.224
21,O=C(Nc1ccc(N2CCN(C(=O)c3ccco3)CC2)cc1)c1cc([N+](=O)[O-])ccc1N1CCOCC1 [CBK269052],110.451
22,Nc1ncn(Cc2ccccc2)c2nc(SCC(=O)O)nc1-2 [CBK267027],140.215
23,COc1ccccc1/C=N/NC(=O)C(=O)NCc1ccccn1 [CBK262286],103.946
24,Cc1cc(C(=O)N2C[C@H]3CC[C@](O)(c4ccc(F)cc4)[C@H]3C2)on1 [CBK284354],111.569
25,COc1cc(C(=O)NCCN2CCCC2)ccc1Nc1cncc(-c2ccc(O)cc2)n1 [CBK122661],105.704
26,CCc1ccc(CNC(=O)Cn2cnc(-c3ccc(CN4CCC(C)CC4)cc3)c2)cc1 [CBK158710T],95.1623
